According to PubChem BioAssay AID2685 (National Center for Advancing Translational Sciences (NCATS), 2010):
Hit rate of the full screen: of about 320,000 compounds, about 2,100 (0.66%) were called active. The shares of active, inactive and inconclusive entries below differ from those in the screen. Calls come from the whole dose curve; as a rule, active = well fitted inhibition curve with a large enough effect in the signal ratio, with a control signal flat (not every such curve was filed as active); inconclusive = small, poorly fitted or top-dose-only effect, or effect the other way, or a change in a side signal; inactive = flat fitted curve, though single readings scatter; the % refers to the signal ratio. Potencies beside an inconclusive call are fits to weak or partial responses and may not hold up.

assay: qHTS Assay for Lipid Storage Modulators in Drosophila S3 Cells; details: BODIPY lipid droplet fluorescence, 18-24 h, cells fed with added oleic acid; lipid storage change, negative = inhibition: at 46.1 µM (top of the series) unless noted
Outline: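 Drosophila S3 cells got compounds at several concentrations plus oleic acid (400 uM solution). Laser-scanning cytometry with 488 nm excitation read lipid droplets at 500-530 nm and cells at 575-640 nm. Percent activity was relative to 20 uM Triacsin C.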
% is set by controls: 0 for no effect and ±100 for the full control effect; potency is the fitted concentration of half-maximal effect.

Compound	Potency	lipid storage change, negative = inhibition
O=C(CSCc1ccccc1)N/N=C/c1cc2c(cc1Br)OCO2	inconclusive: 29.1 µM [falling, single point]	
CCOC(=O)C1CCN(C(=O)CCS(=O)(=O)Cc2ccccc2)CC1		inconclusive: -77.7%
Cc1nnc(SCCn2c(N(C)Cc3ccccc3)nc3c2c(=O)[nH]c(=O)n3C)s1		inconclusive: 20.2%
COc1ccc(S(=O)(=O)N2CCN(C(=O)CCNC(=O)c3ccccc3Cl)CC2)cc1		inconclusive: 22.2%
O=C(CSc1ncn[nH]1)Nc1nsc(-c2ccccc2)n1		inconclusive: 63.7%
NC(=O)CC(NC(=O)c1ccc(Br)cc1)c1ccc(N2CCC(Cc3ccccc3)CC2)c([N+](=O)[O-])c1 (centres undefined)	inconclusive: 0.058 µM [falling, full curve, poor fit]	
Cc1c(Br)c(=O)oc2c(Br)c(O)ccc12		inconclusive: -63.9%
COc1ccc(S(=O)(=O)N(CC(=O)NCc2ccco2)c2ccccc2)cc1		inactive
c1cnc(-c2noc(CN3CCN(C4C5CC6CC(C5)CC4C6)CC3)n2)cn1 (centres undefined)		inconclusive: 24.4%
CCOC(=O)c1c(NC(=O)CCC(=O)N(CC)CC)sc2c1CC(C)(C)OC2		inconclusive: -12.7%
CN1CCN(CC(=O)N2c3ccccc3C(C)(c3ccc(Cl)cc3)CC2(C)C)CC1 (centres undefined)	inconclusive: 1.16 µM [falling, full curve]	
COc1ccc(S(=O)(=O)NC2CCc3ccccc32)cc1OC (centres undefined)		inconclusive: -4.66%
Cc1ccc(S(=O)(=O)N=Nc2c(O)[nH]c3ccccc23)cc1C		inconclusive: -10.8%
CCOC(=O)C1=C(CNCc2ccccc2Cl)NC(=O)NC1c1cccc([N+](=O)[O-])c1 (centres undefined)		inconclusive: 22.8%
CCOc1ccc(N2CC(C(=O)NC(C)C)CC2=O)cc1 (centres undefined)		inconclusive: 14.1%
OCC[C@@H]1C[C@H](O)[C@@H](O)[C@]2(OCCc3ccccc32)O1		inconclusive: 46%
NC(=O)C1(N2CCCCC2)CCN(c2ccc3nnc(-c4ccccc4)n3n2)CC1		inconclusive: 38.1%
CC(=O)Nc1ccccc1S(=O)(=O)CC1CC1(Cl)Cl (centres undefined)	inconclusive: 29.1 µM [activator, single point]	
OCCC1CN(Cc2nc3ccccc3[nH]2)CCN1C1CCCC1 (centres undefined)		inconclusive: 2.41%
O=C(Nc1ccc2c(c1)OCCO2)c1ccc(Br)cc1	inconclusive: 0.092 µM [falling, full curve, poor fit]	
COc1ccc(NC(=O)CS(=O)CC(=O)NC2CCCc3ccccc32)cc1 (centres undefined)	inconclusive: 1.46 µM [activator, partial curve]	
COc1ccc(-c2cc(C)no2)cc1S(=O)(=O)NCCCN(C)Cc1ccccc1	inconclusive: 6.51 µM [activator, single point]	
O=C(Nc1ccc(CN2CCOCC2)cc1)c1cc(Br)ccc1Cl	inconclusive: 29.1 µM [activator, single point]	
NNC(=O)COc1ccc2oc3c(c2c1)CCCC3		inactive
CCN(C(=S)NC(=O)C1CCCC1)C1CCCCC1		inconclusive: -45.5%

Compound	Potency	lipid storage change, negative = inhibition
CCCn1c(NC(=O)c2cccc(S(=O)(=O)N3CCCC3)c2)nc2ccccc21	inconclusive: 32.6 µM [falling, single point]	
COc1ccccc1N1C(=O)N(CC(=O)C(C)(C)C)c2ccccc2S1(=O)=O	inconclusive: 29.1 µM [activator, single point]	
CCN(CC)S(=O)(=O)c1cc(NS(=O)(=O)c2cccc(C(=O)O)c2)ccc1C		inconclusive: 0.0542%
O=C(Nc1nnc(-c2ccco2)s1)C1CCN(S(=O)(=O)c2ccc(Cl)cc2)CC1		inconclusive: 33.8%
COC(=O)c1ccc(Oc2cc(C)nc(SC)n2)cc1		inconclusive: 111%
COc1cc(C(=O)NNC(=S)NC(=O)c2ccc3c(c2)OCO3)cc(OC)c1OC		inconclusive: 20.6%
CCCCC(CC)COC(=O)c1ccc(N(C)C)cc1 (centres undefined)		inconclusive: 9.41%
O=C(NCc1cccnc1)C1CCCN(S(=O)(=O)c2ccc(Br)cc2)C1 (centres undefined)	inconclusive: 29.1 µM [activator, single point]	
O=C(Nc1ccc(Cl)cn1)C1CCCN1S(=O)(=O)c1ccccc1 (centres undefined)		inconclusive: -3.51%
Cc1ccccc1NC(=O)NCC1CCCO1 (centres undefined)	inconclusive: 6.51 µM [activator, single point]	
CN(C)S(=O)(=O)c1ccc(C(=O)NCC(C)(C)CN=C2NS(=O)(=O)c3ccccc32)cc1		inconclusive: -53.5%
Cc1cccc(NC2SC(=O)NC2=O)c1 (centres undefined)		inconclusive: -33.4%
COc1cc(S(=O)(=O)N2CCCCCC2)c(OC)cc1Br		inconclusive: -16%
COc1ccc(C(=O)OC2CCCCC2CN(C)C)cc1 (centres undefined)		inconclusive: 17.2%
COC(=O)C1=C(C(=O)OC)[C@@H]2N(C)c3ccccc3[C@@]23C[C@@H](C(=O)OC)N(C(=O)C2CCC2)C3=N1		inconclusive: -11%
Cc1ccccc1NC(=O)/C=C/c1cccs1		inactive
O=C(CN1CCN(Cc2ccccc2F)C1=O)NCCc1ccc(Cl)cc1	inconclusive: 18.4 µM [activator, single point]	
CCN1C(=O)[C@H]2[C@@H](c3ccc(-c4ccc5c(c4)OCO5)c(OC)c3)N[C@@](CC(C)C)(C(=O)OC)[C@H]2C1=O		inconclusive: -7.59%
CCOC(=O)N/N=C(/C)c1cccc(-n2cnnn2)c1	inconclusive: 1.16 µM [falling, full curve]	
CCOc1ccc(CCNC(=O)c2cnc(C)cn2)cc1OCC	inconclusive: 0.0052 µM [activator, full curve, poor fit]	
COc1cccc(C(=O)Nc2nnc(S(=O)(=O)N3CCCC3)s2)c1	active: 4.11 µM	
COc1ccc(C(=O)c2c(-c3cccc(C)c3)oc3ccc(N4CCOCC4)cc23)cn1		inconclusive: 7.8%
O=C(c1nc2ccccn2c1CNCCCn1ncc2ccccc21)N1CCOCC1		inactive
c1cncc(C2OCC3(CO2)COC(c2cccnc2)OC3)c1 (centres undefined)	inconclusive: 3.66 µM [falling, single point]	
